The target in this assay is T1, POU3F2, Small BiT fusion protein (UniProt P20265).
T1 sequence: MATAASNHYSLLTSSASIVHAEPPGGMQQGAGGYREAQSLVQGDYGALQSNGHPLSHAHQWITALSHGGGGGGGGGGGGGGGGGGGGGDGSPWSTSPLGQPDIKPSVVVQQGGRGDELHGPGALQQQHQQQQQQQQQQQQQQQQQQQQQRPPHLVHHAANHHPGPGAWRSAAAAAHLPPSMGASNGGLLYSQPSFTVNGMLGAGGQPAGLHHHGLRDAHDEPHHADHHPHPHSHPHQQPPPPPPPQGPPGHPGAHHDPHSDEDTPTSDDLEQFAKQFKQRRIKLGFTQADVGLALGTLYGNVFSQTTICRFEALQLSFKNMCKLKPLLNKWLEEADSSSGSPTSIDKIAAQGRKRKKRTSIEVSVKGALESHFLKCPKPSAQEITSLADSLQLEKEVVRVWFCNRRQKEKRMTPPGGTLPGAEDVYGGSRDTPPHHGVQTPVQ
The assay can be described thus: split reporter; HEK293 cells co-transfected with 250 ng SOX4-Large BiT vector (pBiT1.1-C-myc) and 250 ng POU3F2-Small BiT vector (pBiT2.1-N-FLAG); luminescence read one day after transfection (NanoBiT PPI System).

Amino acid sequences for entries named in this document (tags omitted).
UniProt Q06945: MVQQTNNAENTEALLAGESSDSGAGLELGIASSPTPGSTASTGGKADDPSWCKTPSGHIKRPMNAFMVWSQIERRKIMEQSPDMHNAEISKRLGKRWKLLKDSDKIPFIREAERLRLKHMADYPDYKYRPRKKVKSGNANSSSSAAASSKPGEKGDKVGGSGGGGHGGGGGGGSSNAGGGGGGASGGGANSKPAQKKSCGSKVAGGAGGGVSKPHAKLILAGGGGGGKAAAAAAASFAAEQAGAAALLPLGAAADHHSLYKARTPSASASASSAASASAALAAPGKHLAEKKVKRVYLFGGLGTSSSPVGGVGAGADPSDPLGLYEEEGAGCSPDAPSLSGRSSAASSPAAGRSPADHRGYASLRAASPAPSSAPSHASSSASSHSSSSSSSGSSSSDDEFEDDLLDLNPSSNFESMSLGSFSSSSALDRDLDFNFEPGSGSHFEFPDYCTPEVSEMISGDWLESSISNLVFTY

These are yes or no findings as the source states them, for the method shown. In cells and extracts the contact can be indirect. Some results given as binding are weak or reduced against the parent protein; the word gives no strength. Where a sequence is shown, tags or fusion partners need not be part of it.

Turning to “SOX4 wildtype, Large BiT fusion protein (from UniProt Q06945 1-474)”, the binding entry is “binds”.

Values taken from publication PMC9964377.
